One substance from PMC8693265, “Investigation of PAS and CNBH domain interactions in hERG channels and effects of long-QT syndrome-causing mutations with surface plasmon resonance” (The Journal of Biological Chemistry, 2021) can be followed below.

The chains behind the UniProt entries cited, without tags or fusion partners. Residues count along the entry.
hERG PAS domain (residues 2-134) (Q12809, residues 2-134): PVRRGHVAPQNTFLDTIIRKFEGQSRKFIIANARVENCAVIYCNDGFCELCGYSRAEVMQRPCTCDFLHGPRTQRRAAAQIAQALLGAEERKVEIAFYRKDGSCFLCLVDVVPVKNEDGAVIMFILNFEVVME
hERG CNBH domain (residues 734-867) (Q12809, residues 734-867): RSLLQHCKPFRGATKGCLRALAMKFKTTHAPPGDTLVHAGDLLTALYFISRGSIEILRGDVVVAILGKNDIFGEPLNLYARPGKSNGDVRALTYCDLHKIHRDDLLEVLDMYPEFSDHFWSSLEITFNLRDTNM

No constants are given. Whether binding was seen depends on the method and setting.

The assay addresses hERG CNBH domain (residues 734-867) (human) (UniProt Q12809). The assay can be described thus: SPR; free PAS domain at 3 uM over CNBH or PAS domain immobilised on a CM5 chip; 600 mM KCl, 1 mM TCEP, 10% glycerol, 0.05% Tween 20, 30 mM HEPES pH 7.5 (series 150, 300, 600 mM KCl); both purified. In general terms: In SPR one partner is held on a chip, and binding of the other changes the refractive index at the surface.

Take “hERG PAS domain (residues 2-134) (from UniProt Q12809 2-134) (domain or fragment)”: the binding result is “no binding (condition: 600 mM KCl (PAS at 3 μM))”.
